No constants are given. Whether binding was seen depends on the method and setting. In cells and extracts the contact can be indirect. Some results given as binding are weak or reduced against the parent protein; the word gives no strength. For part of these data: Tags and fused reporters may be left off the sequences shown.
How the values were obtained:
Experiment in all cases: pull-down
LAP tagged KIF2B = LAP tagged KIF2B (UniProt Q8N4N8)
LAP Tagged KIF2C.GFP = biological target: T1, LAP Tagged KIF2C.GFP (UniProt Q99661)
T1 sequence: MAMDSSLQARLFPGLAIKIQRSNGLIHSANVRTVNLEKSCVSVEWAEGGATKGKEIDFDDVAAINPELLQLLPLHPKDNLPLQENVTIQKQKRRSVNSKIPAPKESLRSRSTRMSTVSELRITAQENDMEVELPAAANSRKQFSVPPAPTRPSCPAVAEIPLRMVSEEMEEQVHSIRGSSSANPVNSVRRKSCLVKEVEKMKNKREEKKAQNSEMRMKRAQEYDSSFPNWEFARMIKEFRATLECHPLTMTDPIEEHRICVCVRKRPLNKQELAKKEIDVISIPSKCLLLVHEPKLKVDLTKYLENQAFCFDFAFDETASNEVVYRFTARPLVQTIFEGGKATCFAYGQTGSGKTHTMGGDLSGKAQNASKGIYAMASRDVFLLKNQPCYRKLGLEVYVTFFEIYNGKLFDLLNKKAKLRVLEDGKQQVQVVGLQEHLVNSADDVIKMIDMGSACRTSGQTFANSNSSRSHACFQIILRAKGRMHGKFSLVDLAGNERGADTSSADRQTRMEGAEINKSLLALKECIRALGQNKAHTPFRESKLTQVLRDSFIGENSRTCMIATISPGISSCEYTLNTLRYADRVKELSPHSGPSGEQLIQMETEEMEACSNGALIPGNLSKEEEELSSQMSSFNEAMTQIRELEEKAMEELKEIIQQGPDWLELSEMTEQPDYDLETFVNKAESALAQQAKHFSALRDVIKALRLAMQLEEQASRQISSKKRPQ

Protein sequences, listed by entry. Tags and fused reporters are not part of them.
UniProt Q8N4N8: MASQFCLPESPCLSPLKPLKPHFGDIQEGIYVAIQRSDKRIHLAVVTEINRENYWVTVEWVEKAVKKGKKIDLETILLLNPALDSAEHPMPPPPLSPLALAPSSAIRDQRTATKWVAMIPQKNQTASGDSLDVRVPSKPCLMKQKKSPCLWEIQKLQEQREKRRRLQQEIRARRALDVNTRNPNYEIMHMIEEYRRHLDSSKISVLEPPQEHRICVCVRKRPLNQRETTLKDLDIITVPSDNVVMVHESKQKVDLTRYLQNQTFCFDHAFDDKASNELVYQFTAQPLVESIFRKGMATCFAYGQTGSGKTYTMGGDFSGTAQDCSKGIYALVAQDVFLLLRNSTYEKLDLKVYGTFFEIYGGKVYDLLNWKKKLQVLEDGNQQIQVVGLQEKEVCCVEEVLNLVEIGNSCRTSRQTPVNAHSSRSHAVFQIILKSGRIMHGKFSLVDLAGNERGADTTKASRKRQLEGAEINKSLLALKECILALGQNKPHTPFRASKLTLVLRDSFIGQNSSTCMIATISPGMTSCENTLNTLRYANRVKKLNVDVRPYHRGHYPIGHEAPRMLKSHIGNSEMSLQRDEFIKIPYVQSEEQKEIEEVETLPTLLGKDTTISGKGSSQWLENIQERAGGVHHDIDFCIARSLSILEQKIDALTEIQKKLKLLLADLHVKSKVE
UniProt Q15291: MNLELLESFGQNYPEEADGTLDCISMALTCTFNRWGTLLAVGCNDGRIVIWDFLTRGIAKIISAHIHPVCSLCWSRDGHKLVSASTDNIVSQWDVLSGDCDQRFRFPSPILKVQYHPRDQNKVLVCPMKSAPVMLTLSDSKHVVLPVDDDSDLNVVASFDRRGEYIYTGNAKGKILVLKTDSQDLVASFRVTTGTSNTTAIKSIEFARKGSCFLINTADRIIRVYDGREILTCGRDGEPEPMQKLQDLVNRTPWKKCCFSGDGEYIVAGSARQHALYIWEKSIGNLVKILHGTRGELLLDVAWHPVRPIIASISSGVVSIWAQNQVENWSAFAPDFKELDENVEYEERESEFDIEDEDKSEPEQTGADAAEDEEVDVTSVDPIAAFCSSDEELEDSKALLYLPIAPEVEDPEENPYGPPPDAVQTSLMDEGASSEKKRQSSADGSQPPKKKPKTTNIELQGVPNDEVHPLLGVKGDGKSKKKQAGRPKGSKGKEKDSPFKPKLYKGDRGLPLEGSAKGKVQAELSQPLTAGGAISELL
UniProt Q03164: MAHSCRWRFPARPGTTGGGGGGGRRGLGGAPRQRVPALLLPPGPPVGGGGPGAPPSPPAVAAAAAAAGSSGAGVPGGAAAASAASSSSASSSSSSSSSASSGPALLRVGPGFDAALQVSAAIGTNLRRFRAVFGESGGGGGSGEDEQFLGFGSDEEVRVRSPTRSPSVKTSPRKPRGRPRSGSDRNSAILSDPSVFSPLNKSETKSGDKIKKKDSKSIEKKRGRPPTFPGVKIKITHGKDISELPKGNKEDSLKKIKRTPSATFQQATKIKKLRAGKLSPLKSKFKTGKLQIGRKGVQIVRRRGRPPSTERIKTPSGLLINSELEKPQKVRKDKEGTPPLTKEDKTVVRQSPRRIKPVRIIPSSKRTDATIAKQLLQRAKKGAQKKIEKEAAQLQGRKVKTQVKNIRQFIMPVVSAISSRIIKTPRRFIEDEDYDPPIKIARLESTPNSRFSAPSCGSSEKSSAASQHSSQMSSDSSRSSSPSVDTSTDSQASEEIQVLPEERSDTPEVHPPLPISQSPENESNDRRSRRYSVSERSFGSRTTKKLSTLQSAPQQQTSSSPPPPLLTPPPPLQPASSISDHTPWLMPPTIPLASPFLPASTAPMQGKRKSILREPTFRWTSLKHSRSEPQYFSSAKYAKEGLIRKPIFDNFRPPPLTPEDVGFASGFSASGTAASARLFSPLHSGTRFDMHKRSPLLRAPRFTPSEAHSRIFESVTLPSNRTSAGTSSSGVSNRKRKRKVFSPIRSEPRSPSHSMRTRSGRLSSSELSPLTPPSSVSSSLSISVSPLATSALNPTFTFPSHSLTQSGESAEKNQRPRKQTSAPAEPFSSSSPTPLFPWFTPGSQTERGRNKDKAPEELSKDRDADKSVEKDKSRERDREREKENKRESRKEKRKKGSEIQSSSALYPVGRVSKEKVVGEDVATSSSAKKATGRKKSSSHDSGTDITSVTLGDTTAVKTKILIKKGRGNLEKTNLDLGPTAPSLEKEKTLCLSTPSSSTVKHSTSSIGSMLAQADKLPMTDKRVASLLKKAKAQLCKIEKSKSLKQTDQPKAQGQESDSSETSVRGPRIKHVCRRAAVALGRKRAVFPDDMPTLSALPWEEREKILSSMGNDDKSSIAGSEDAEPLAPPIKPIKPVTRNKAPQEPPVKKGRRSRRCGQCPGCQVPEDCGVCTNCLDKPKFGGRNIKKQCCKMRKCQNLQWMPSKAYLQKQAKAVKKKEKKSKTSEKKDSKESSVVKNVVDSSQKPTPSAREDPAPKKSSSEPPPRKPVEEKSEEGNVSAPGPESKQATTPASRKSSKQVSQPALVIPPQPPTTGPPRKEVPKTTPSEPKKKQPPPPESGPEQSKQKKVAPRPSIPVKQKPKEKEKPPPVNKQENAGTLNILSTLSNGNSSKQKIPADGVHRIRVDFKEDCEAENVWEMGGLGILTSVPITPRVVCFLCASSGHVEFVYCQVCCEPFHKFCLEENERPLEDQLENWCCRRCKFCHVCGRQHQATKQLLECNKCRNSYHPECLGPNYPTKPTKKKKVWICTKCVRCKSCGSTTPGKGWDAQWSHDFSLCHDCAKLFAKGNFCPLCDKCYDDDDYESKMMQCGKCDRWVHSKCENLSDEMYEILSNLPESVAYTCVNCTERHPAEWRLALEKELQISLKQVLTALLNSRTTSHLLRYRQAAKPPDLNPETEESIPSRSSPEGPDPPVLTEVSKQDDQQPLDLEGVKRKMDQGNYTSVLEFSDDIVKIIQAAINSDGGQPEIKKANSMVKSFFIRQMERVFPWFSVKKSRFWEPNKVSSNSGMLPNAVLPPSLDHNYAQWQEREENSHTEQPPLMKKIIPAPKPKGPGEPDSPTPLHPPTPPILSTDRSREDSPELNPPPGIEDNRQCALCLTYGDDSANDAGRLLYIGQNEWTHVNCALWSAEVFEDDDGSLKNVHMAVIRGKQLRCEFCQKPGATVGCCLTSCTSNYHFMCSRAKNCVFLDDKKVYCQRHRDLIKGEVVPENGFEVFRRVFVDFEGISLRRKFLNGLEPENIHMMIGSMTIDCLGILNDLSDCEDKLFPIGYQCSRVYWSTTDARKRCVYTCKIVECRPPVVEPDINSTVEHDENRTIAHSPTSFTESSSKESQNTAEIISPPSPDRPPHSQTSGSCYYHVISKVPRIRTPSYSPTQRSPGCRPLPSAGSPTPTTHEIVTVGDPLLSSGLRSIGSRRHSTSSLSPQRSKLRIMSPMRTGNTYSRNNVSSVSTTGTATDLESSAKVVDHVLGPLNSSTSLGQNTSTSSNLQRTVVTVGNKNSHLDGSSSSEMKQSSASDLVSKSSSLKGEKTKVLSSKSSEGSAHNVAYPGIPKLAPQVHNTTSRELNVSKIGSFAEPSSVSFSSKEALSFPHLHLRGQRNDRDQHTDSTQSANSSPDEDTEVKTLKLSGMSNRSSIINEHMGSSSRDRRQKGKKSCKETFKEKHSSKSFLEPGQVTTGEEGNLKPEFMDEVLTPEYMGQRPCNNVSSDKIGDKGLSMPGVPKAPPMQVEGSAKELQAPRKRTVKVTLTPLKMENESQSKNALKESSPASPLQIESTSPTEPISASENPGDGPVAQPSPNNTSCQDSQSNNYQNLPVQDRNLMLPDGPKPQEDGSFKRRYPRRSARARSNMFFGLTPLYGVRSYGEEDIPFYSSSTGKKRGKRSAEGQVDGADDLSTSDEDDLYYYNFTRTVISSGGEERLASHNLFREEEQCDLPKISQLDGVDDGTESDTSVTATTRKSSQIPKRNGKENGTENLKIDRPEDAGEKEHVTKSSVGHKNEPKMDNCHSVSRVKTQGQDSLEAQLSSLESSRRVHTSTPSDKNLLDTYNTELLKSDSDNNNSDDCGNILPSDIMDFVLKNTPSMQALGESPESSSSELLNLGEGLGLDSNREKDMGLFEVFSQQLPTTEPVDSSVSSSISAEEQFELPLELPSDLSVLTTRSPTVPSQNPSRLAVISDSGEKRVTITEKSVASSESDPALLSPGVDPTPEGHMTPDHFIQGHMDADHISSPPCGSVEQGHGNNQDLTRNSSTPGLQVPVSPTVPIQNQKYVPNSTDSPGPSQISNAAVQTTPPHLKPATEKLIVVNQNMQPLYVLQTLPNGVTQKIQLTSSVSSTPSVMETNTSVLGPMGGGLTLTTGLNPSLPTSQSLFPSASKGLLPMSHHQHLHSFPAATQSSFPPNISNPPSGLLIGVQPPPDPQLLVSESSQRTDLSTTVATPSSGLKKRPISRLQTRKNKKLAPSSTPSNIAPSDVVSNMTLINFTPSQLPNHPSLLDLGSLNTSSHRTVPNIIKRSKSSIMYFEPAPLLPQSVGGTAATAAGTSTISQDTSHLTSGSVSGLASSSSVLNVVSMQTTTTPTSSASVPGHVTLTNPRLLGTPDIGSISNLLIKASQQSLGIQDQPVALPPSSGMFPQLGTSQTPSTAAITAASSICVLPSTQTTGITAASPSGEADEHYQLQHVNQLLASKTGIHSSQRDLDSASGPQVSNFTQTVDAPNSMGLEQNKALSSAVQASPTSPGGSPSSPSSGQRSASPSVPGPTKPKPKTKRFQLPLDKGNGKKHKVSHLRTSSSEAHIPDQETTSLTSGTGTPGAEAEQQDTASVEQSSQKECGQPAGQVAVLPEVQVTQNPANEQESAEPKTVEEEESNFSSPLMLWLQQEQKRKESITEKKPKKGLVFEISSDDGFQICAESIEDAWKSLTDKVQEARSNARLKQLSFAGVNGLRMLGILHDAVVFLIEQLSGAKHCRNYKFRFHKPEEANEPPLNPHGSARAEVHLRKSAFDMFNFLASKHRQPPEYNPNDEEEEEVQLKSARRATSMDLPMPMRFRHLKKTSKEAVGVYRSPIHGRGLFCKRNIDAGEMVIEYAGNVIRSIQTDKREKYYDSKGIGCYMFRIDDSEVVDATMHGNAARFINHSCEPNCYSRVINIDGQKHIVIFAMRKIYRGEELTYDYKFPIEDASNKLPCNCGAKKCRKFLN

GST-KIF2B = GST-KIF2B (UniProt Q8N4N8)
GST-KIF2C = biological target: T2, GST-KIF2C (UniProt Q99661)
T2 sequence: T1 sequence

Row | Substance | binding (LAP tagged KIF2B) | binding (LAP Tagged KIF2C.GFP) | binding (GST-KIF2B) | binding (GST-KIF2C)
1 | RbBP5 (endogenous, HeLa) (from UniProt Q15291 1-538) | binds | binds |  | 
2 | Mixed-lineage leukemia (MLL/KMT2A) protein (endogenous, HeLa) (from UniProt Q03164 1-3969) | binds | binds |  | 
3 | RbBP5 (endogenous, HEK293T) (from UniProt Q15291 1-538) |  |  | binds | binds

Source: article doi:10.1101/2024.10.17.618797
